# Test results published in PubChem BioAssay AID2685 (National Center for Advancing Translational Sciences (NCATS), 2010).
# About 2,100 (0.66%) of roughly 320,000 compounds were called active. The shares of active, inactive and inconclusive entries below differ from those in the screen. The call rests on the fitted dose curve; in most records, active means well fitted inhibition curve with a large enough effect in the signal ratio, with a control signal flat (not every such curve was filed as active); inconclusive means small, poorly fitted or top-dose-only effect, or effect the other way, or a change in a side signal; inactive means flat fitted curve, though single readings scatter; the % refers to the signal ratio. Potencies beside an inconclusive call are fits to weak or partial responses and may not hold up.
# Test: qHTS Assay for Lipid Storage Modulators in Drosophila S3 Cells
# Conditions: BODIPY lipid droplet fluorescence, 18-24 h, cells fed with added oleic acid; lipid storage change, negative = inhibition: at 46.1 µM (top of the series) unless noted
# In short: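 Drosophila S3 cells got compounds at several concentrations plus oleic acid (400 uM solution). Laser-scanning cytometry with 488 nm excitation read lipid droplets at 500-530 nm and cells at 575-640 nm. Percent activity was relative to 20 uM Triacsin C.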
# On the % scale 0 is the no-effect control and ±100 the full control effect; potency means the concentration at half of the fitted maximal effect.
SMILES,"lipid storage change, negative = inhibition",Potency,outcome
CCC(=O)Nc1ccc2c(c1)nc(CCN1CCCCC1)n2C,inconclusive: 6.66%,,
Cc1cccc(C(C(=O)NC2CCCC2)N(C(=O)c2csnn2)C2CCCC2)c1 (configuration not stated),inconclusive: -79.7%,,
c1ccc(C(c2nnnn2Cc2ccco2)N2CCN(c3nc4ccccc4s3)CC2)cc1 (configuration not stated),inconclusive: -28.6%,,
CC1(C)C(=O)OC(c2ccccc2)C2(CCCC2)C1=O (configuration not stated),,"inconclusive: 29.1 µM [activator, single point]",
Cn1c(SCC(=O)NCc2ccco2)nnc1-c1c[nH]c2ccccc12,inconclusive: 1.44%,,
CCN(C(=O)COC(=O)CCn1c(C)csc1=O)c1c(N)n(Cc2ccccc2)c(=O)[nH]c1=O,,"inconclusive: 3.26 µM [falling, single point]",
CCN(CC)c1ccc(NC(=O)c2cnccn2)cc1S(=O)(=O)Nc1ccc(OC)cc1,,"inconclusive: 29.1 µM [activator, single point]",
CCCCn1c(N)c(N(CCC(C)C)C(=O)CCN2C(=O)C3CC=CCC3C2=O)c(=O)[nH]c1=O (configuration not stated),inconclusive: -56.4%,,
CN1CCC(N2CCCC(C(=O)O)C2)CC1 (configuration not stated),,active: 6.51 µM,
CC(=O)Nc1ccc(S(=O)(=O)N(C)CC(=O)OCC(=O)c2ccc3c(c2)NC(=O)CO3)cc1,,"inconclusive: 23.1 µM [falling, single point]",
CCN(Cc1ccccc1)C(=O)CCS(=O)(=O)c1cc2c(cc1Cl)NC(=O)CO2,inconclusive: -15.4%,,
S=C(NCCc1ccccc1)NCCc1ccccc1,inconclusive: -1.31%,,
CCCCNC(=O)NNc1nc(Cl)cc(C)c1C#N,inconclusive: -24.5%,,
CCN(CC(=O)Nc1c(F)cccc1F)C(=O)/C=C/c1c(C)nn(-c2ccc(F)cc2)c1C,inconclusive: -58.7%,,
O=C(CCOc1ccccc1)Nc1cccc(S(=O)(=O)Nc2ccccc2Cl)c1,inconclusive: -10.5%,,
COC(=O)CN1C(=O)Nc2ccc(C)cc2C1c1ccccc1 (configuration not stated),inconclusive: 9.06%,,
CC(=O)N1CCN(c2ccc(Nc3ncnc4c3oc3ccccc34)cc2)CC1,,"inconclusive: 29.1 µM [falling, single point]",
NCCC(=O)N1c2ccccc2Sc2ccc(Cl)cc21,,"inconclusive: 0.103 µM [falling, full curve, poor fit]",
O=C(C1=C(O)C(=O)N(CCc2ccccc2)C1c1cccs1)c1ccco1 (configuration not stated),,,inactive [at 46.1 µM]
Cc1cc(C)n(Cc2ccccc2Cl)n1,inconclusive: 13.4%,,
Cc1cc(C)nc(SCC(=O)Nc2ncc(Cc3ccc(Cl)c(Cl)c3)s2)n1,inconclusive: 22.8%,,
CCC[C@@H](CN[C@@H](CNC)[C@H](C)CC)NCC1CCC(C(C)(C)C)CC1 (some centres not stated),inconclusive: 48.5%,,
C=C1CCN(c2ccc(C(=O)NCc3ccc(C)cc3)cc2[N+](=O)[O-])CC1,inconclusive: -36.2%,,
CN(C)CCNC(=O)CN1C(=O)COc2ccc(C(C)(C)C)cc21,inconclusive: -10.1%,,
CCCOc1ccc(CN(C)c2ncnc(N)n2)cc1,,"inconclusive: 29.1 µM [activator, single point]",
O=C(NCCCN1CCCC1)c1ccc2c(c1)N(Cc1cccc(Cl)c1)C(=O)c1ccccc1S2=O (configuration not stated),inconclusive: 19.3%,,

SMILES,"lipid storage change, negative = inhibition",Potency,outcome
Nc1nc(N)c(N=O)c(OCC2CCCCC2)n1,inconclusive: -0.865%,,
Cc1cc(C)cc(N2Cc3ccccc3C2)c1,,"inconclusive: 0.651 µM [falling, full curve]",
Cc1ccc(OCC(=O)n2nc(C)cc2C)c(C)c1,,"inconclusive: 0.326 µM [falling, full curve, poor fit]",
Cc1cccc(C(=O)Nc2cc(Cl)ccc2-n2cncn2)c1[N+](=O)[O-],inconclusive,,
Cc1ccc(Nc2ccccc2N)cc1,,"inconclusive: 20.6 µM [falling, single point]",
O=Cc1ccc(OCc2cn3ccccc3n2)cc1,inconclusive: -21%,,
O=C(CCCN1C(=O)/C(=C/c2cccs2)SC1=S)Nc1cccc(C(=O)O)c1,inconclusive: -34.1%,,
Cc1nnc(SCC(=O)NC2CCCC2)s1,,"inconclusive: 1.64 µM [falling, partial curve]",
CCOC(=O)/C=c1\sc2n(c1=O)CCN=2,,"inconclusive: 29.1 µM [falling, single point]",
O=C(CN1C(=O)NC2(CCc3ccccc32)C1=O)NCc1ccccc1Cl (configuration not stated),inconclusive: 10.6%,,
Cc1ccc([C@@H]2[C@@H]3C(=O)N(C)C(=O)[C@@H]3[C@]3(Cc4ccccc4)C(=O)N(Cc4ccccn4)CC(=O)N23)o1,inconclusive: -32.8%,,
Cc1cccc2cc(CN(CC3CCCO3)C(=O)c3ccco3)c(=O)[nH]c12 (configuration not stated),inconclusive: 26.5%,,
O=[N+]([O-])c1cc(/C=N/Nc2nc(N3CCCCC3)nc(N3CCCCC3)n2)ccc1O,inconclusive: -0.784%,,
CSc1ccc(/C=C/C(=O)OCC(=O)NC2CCS(=O)(=O)C2)cc1 (configuration not stated),inconclusive: -0.839%,,
CCCOC1CCCN(C(=O)CCc2nnc(-c3ccc4c(c3)OCO4)o2)C1 (configuration not stated),,"inconclusive: 0.366 µM [falling, full curve, poor fit]",
CCNC(=S)N(Cc1cc2cccc(C)c2[nH]c1=O)C1CCCC1,inconclusive: 33.2%,,
CNC(=O)N(O)C1N(/N=C/c2ccccc2F)C(=S)SC1(C)C (configuration not stated),inconclusive: -25.2%,,
Cc1ccc(S(=O)(=O)N2CCCCC2)cc1NC(=O)Nc1ccc(Cl)cc1Cl,inconclusive: -62.7%,,
CCc1c(C)sc(NC(=O)C2CC2)c1C(=O)OC(C)C,,active: 1.3 µM,
Cc1ccc(NC(=O)c2ccc(CSc3ncnc4nc[nH]c34)cc2)c(C)c1,,"inconclusive: 14.6 µM [activator, partial curve]",
Cc1ccc(NC(=O)COC(=O)c2cc(-c3cccs3)nn2-c2ccccc2)cc1[N+](=O)[O-],,"inconclusive: 4.61 µM [activator, partial curve]",
Cc1ccc(O)c(N/C=C/C(=O)c2ccc(F)cc2)c1,inconclusive: -27.7%,,
S=C(NCC1CCCO1)Nc1ccccc1Cl (configuration not stated),inconclusive: -33.9%,,
CC(Oc1ccc(Br)cc1)C(=O)N1CCN(c2ccccn2)CC1 (configuration not stated),,"inconclusive: 29.1 µM [activator, single point]",
CCOc1ccccc1C1NC(=O)NC(C)=C1C(=O)OCc1ccco1 (configuration not stated),inconclusive: 53.8%,,
Cc1ccc(S(=O)(=O)N(C)C)cc1NC(=S)NCc1ccco1,inconclusive: 8.38%,,

# Whole records, quoted from the list:
# CC(Oc1ccc(Br)cc1)C(=O)N1CCN(c2ccccn2)CC1 (configuration not stated) in the list: Potency: inconclusive: 29.1 µM [activator, single point]
# O=C(CN1C(=O)NC2(CCc3ccccc32)C1=O)NCc1ccccc1Cl (configuration not stated) in the list: lipid storage change, negative = inhibition: inconclusive: 10.6%
# Nc1nc(N)c(N=O)c(OCC2CCCCC2)n1 in the list: lipid storage change, negative = inhibition: inconclusive: -0.865%

# Next compounds:

SMILES,"lipid storage change, negative = inhibition",Potency,outcome
O=S(=O)(c1ccccc1)[C@@]1(c2ccc(Br)cc2)C[C@@H]2ON=C(c3cccc(Br)c3)[C@@H]2C1,,"inconclusive: 3.66 µM [activator, single point]",
COC(=O)CN1CCN(C(=O)c2ccco2)CC1,inconclusive: -7.06%,,
COc1ccc(S(=O)(=O)Nc2ccc(S(=O)(=O)N(C)C)cc2)cc1[N+](=O)[O-],inconclusive: 11.1%,,
COc1cccc(NC(=O)CCc2c(C)nn(-c3ccc(N4CCOCC4)nn3)c2C)c1,,"inconclusive: 5.8 µM [falling, full curve, poor fit]",
COc1ccc(S(=O)(=O)N2CCCCC2)cc1NC(=O)c1ccc2c(c1)OCO2,,"inconclusive: 2.59 µM [activator, partial curve, poor fit]",
Cc1cccc(CC(=O)NCC(=O)NCc2cc(=O)n(C)c(=O)n2C)c1,,"inconclusive: 0.0517 µM [activator, full curve, poor fit]",
CCOC(=O)/C=C1\SCC(=O)N1CC(=O)Nc1cccc(F)c1,inconclusive: -39.2% [at 0.00295 µM],,
COc1ccccc1NC(=O)c1ccc(NC(=O)CSc2n[nH]c(N)n2)cc1,inconclusive: 6.35%,,
COc1ccc(-c2cc(C(=O)NN3CCOCC3)c3ccccc3n2)cc1OC,inconclusive: 463%,,
CC(C)Cn1c(N)c(C(=O)CSc2nnnn2C)c(=O)n(C)c1=O,inconclusive: -0.886%,,
COCCNC(=O)/C(=C/c1ccccc1Cl)c1ccccc1,inconclusive: -6.16%,,
CC(=O)N1CC=C2C(C#N)=C(N)C(C#N)(C#N)[C@H](c3ccoc3)[C@H]2C1,inconclusive: -34.1%,,
O=C(O)CCN(CCC(=O)O)S(=O)(=O)c1ccccc1,inconclusive: -19.9%,,
Cc1cc(CN(C)C(=O)c2cc(COc3ccc(C)c(C)c3)on2)on1,inconclusive: -28.5%,,
O=C(/C=C\c1cn(-c2ccccc2)nc1-c1cccs1)N1CCOCC1,inconclusive: -2.83%,,
CCOc1ccc(NS(=O)(=O)c2ccc(NS(C)(=O)=O)cc2)cc1,inconclusive: -49.6%,,
Clc1cnc(N/N=C/c2cccs2)c(Cl)c1,inconclusive: -106%,,
CC(OC(=O)Cn1cnc2c1c(=O)n(C)c(=O)n2C)C(=O)c1ccccc1 (configuration not stated),inconclusive: 0.0918%,,
CC1CC(=O)N(CC(=O)Nc2ccc(F)cc2F)c2ccccc2S1(=O)=O (configuration not stated),inconclusive: 248%,,
C=CCN1C(=O)/C(=C\c2ccco2)C(C(=O)OC)=C1C,inconclusive: -18.1%,,
CC(NC(=O)COc1ccc(Br)cc1)C1CCCO1 (configuration not stated),inconclusive: 5.1%,,
CCN(Cc1ccccc1)C(=O)COC(=O)CNS(=O)(=O)c1ccc(C)cc1,inconclusive: -21.2%,,
Cc1cccc(NC(=O)C2CCCN(C(=O)Nc3ccc(F)cc3)C2)c1 (configuration not stated),inconclusive: 67.3%,,
Cn1cc(C(=O)N/N=C/c2cccc([N+](=O)[O-])c2)c2ccccc21,inconclusive: 14.9%,,
CCNC(=S)Nc1ccc(OC(F)(F)F)cc1,,"inconclusive: 0.326 µM [falling, single point]",
